The test system of the data set is BAF complex subunits and histone proteins. In words: Mass spectrometry proteomics of purified HA-SS18 WT and HA-SS18-SSX1 complexes (Tables 5A-5E). Also noted: species or system human. The settings on record: for Total / Unique: HA-SS18SSX1_CHR_peptides; for Total: total peptides of the identified protein; for Unique: unique peptides of the identified protein.
[1] abbreviates: HA-SS18WT_CHR_peptides: protein identified in HA-SS18 WT BAF complex purification from nuclease-treated solubilized chromatin (CHR), HEK-293T.
Setting [2] is: HA-SS18WT_CHR_peptides: HA-SS18 WT purification from nuclease-treated solubilized chromatin (CHR), HEK-293T, label = protein identified.
[3] abbreviates: HA-SS18WT_NE_peptides: proteins co-purified with HA-SS18 WT from nuclear extract (NE), HEK-293T.

B1: CHERP (protein, UniProt Q8IWX8 1-916, looked up)
Calcium homeostasis …: MEMPLPPDDQELRNVIDKLAQFVARNGPEFEKMTMEKQKDNPKFSFLFGGEFYSYYKCKLALEQQQLICKQQTPELEPAATMPPLPQPPLAPAAPIPPAQGAPSMDELIQQSQWNLQQQEQHLLALRQEQVTAAVAHAVEQQMQKLLEETQLDMNEFDNLLQPIIDTCTKDAISAGKNWMFSNAKSPPHCELMAGHLRNRITADGAHFELRLHLIYLINDVLHHCQRKQARELLAALQKVVVPIYCTSFLAVEEDKQQKIARLLQLWEKNGYFDDSIIQQLQSPALGLGQYQATLINEYSSVVQPVQLAFQQQIQTLKTQHEEFVTSLAQQQQQQQQQQQQLQMPQMEAEVKATPPPPAPPPAPAPAPAIPPTTQPDDSKPPIQMPGSSEYEAPGGVQDPAAAGPRGPGPHDQIPPNKPPWFDQPHPVAPWGQQQPPEQPPYPHHQGGPPHCPPWNNSHEGMWGEQRGDPGWNGQRDAPWNNQPDAAWNSQFEGPWNSQHEQPPWGGGQREPPFRMQRPPHFRGPFPPHQQHPQFNQPPHPHNFNRFPPRFMQDDFPPRHPFERPPYPHRFDYPQGDFPAEMGPPHHHPGHRMPHPGINEHPPWAGPQHPDFGPPPHGFNGQPPHMRRQGPPHINHDDPSLVPNVPYFDLPAGLMAPLVKLEDHEYKPLDPKDIRLPPPMPPSERLLAAVEAFYSPPSHDRPRNSEGWEQNGLYEFFRAKMRARRRKGQEKRNSGPSRSRSRSKSRGRSSSRSNSRSSKSSGSYSRSRSRSCSRSYSRSRSRSRSRSRSSRSRSRSQSRSRSKSYSPGRRRRSRSRSPTPPSSAGLGSNSAPPIPDSRLGEENKGHQMLVKMGWSGSGGLGAKEQGIQDPIKGGDVRDKWDQYKGVGVALDDPYENYRRNKSYSFIARMKARDECK
With B1, the Total is 3 and the Unique amounted to 3.

B2: PHF14 (protein, UniProt O94880 1-948, looked up)
PHD finger protein 14: MDRSSKRRQVKPLAASLLEALDYDSSDDSDFKVGDASDSEGSGNGSEDASKDSGEGSCSDSEENILEEELNEDIKVKEEQLKNSAEEEVLSSEKQLIKMEKKEEEENGERPRKKKEKEKEKEKEKEKEKEREKEKEKATVSENVAASAAATTPATSPPAVNTSPSVPTTTTATEEQVSEPKKWNLRRNRPLLDFVSMEELNDMDDYDSEDDNDWRPTVVKRKGRSASQKEGSDGDNEDDEDEGSGSDEDENDEGNDEDHSSPASEGGCKKKKSKVLSRNSADDEELTNDSLTLSQSKSNEDSLILEKSQNWSSQKMDHILICCVCLGDNSEDADEIIQCDNCGITVHEGCYGVDGESDSIMSSASENSTEPWFCDACKCGVSPSCELCPNQDGIFKETDAGRWVHIVCALYVPGVAFGDIDKLRPVTLTEMNYSKYGAKECSFCEDPRFARTGVCISCDAGMCRAYFHVTCAQKEGLLSEAAAEEDIADPFFAYCKQHADRLDRKWKRKNYLALQSYCKMSLQEREKQLSPEAQARINARLQQYRAKAELARSTRPQAWVPREKLPRPLTSSASAIRKLMRKAELMGISTDIFPVDNSDTSSSVDGRRKHKQPALTADFVNYYFERNMRMIQIQENMAEQKNIKDKLENEQEKLHVEYNKLCESLEELQNLNGKLRSEGQGIWALLGRITGQKLNIPAILRAPKERKPSKKEGGTQKTSTLPAVLYSCGICKKNHDQHLLLLCDTCKLHYHLGCLDPPLTRMPRKTKNSYWQCSECDQAGSSDMEADMAMETLPDGTKRSRRQIKEPVKFVPQDVPPEPKKIPIRNTRTRGRKRSFVPEEEKHEERVPRERRQRQSVLQKKPKAEDLRTECATCKGTGDNENLVRCDECRLCYHFGCLDPPLKKSPKQTGYGWICQECDSSSSKEDENEAERKNISQELNMEQKNPKK
For the molecule B2, the Total turned out to be 3 and the Unique is on record as 3. Further, under setting [1], the “Total (total peptides)” value worked out at 1 and the “Unique (unique peptides)” value turned out to be 1.

B3: DDX31 (protein, UniProt Q9H8H2 1-851, looked up)
ATP-dependent DNA helicase …: MAPDLASQRHSESFPSVNSRPNVILPGREGRREGLPPGGGTRGSLVPTRPVPPSPAPLGTSPYSWSRSGPGRGGGAGSSRVPRGVPGPAVCAPGSLLHHASPTQTMAAADGSLFDNPRTFSRRPPAQASRQAKATKRKYQASSEAPPAKRRNETSFLPAKKTSVKETQRTFKGNAQKMFSPKKHSVSTSDRNQEERQCIKTSSLFKNNPDIPELHRPVVKQVQEKVFTSAAFHELGLHPHLISTINTVLKMSSMTSVQKQSIPVLLEGRDALVRSQTGSGKTLAYCIPVVQSLQAMESKIQRSDGPYALVLVPTRELALQSFDTVQKLLKPFTWIVPGVLMGGEKRKSEKARLRKGINILISTPGRLVDHIKSTKNIHFSRLRWLVFDEADRILDLGFEKDITVILNAVNAECQKRQNVLLSATLTEGVTRLADISLHDPVSISVLDKSHDQLNPKDKAVQEVCPPPAGDKLDSFAIPESLKQHVTVVPSKLRLVCLAAFILQKCKFEEDQKMVVFFSSCELVEFHYSLFLQTLLSSSGAPASGQLPSASMRLKFLRLHGGMEQEERTAVFQEFSHSRRGVLLCTDVAARGLDLPQVTWIVQYNAPSSPAEYIHRIGRTARIGCHGSSLLILAPSEAEYVNSLASHKINVSEIKMEDILCVLTRDDCFKGKRWGAQKSHAVGPQEIRERATVLQTVFEDYVHSSERRVSWAKKALQSFIQAYATYPRELKHIFHVRSLHLGHVAKSFGLRDAPRNLSALTRKKRKAHVKRPDLHKKTQSKHSLAEILRSEYSSGMEADIAKVKKQNAPGEPGGRPLQHSLQPTPCFGRGKTLKWRKTQKGVQRDSKTSQKV
In the case of B3, the Total is listed as 3 and the Unique worked out at 3. Moreover, under setting [2], the “Total (peptides)” value stood at 3 and the “Unique (peptides)” value is given as 3. Further, under setting [3], the “Total (peptides)” value is listed as 2 and the “Unique (peptides)” value is reported as 2.

B4: HNRNPUL1 (protein, UniProt Q9BUJ2 1-856, looked up)
Heterogeneous nuclear …: MDVRRLKVNELREELQRRGLDTRGLKAELAERLQAALEAEEPDDERELDADDEPGRPGHINEEVETEGGSELEGTAQPPPPGLQPHAEPGGYSGPDGHYAMDNITRQNQFYDTQVIKQENESGYERRPLEMEQQQAYRPEMKTEMKQGAPTSFLPPEASQLKPDRQQFQSRKRPYEENRGRGYFEHREDRRGRSPQPPAEEDEDDFDDTLVAIDTYNCDLHFKVARDRSSGYPLTIEGFAYLWSGARASYGVRRGRVCFEMKINEEISVKHLPSTEPDPHVVRIGWSLDSCSTQLGEEPFSYGYGGTGKKSTNSRFENYGDKFAENDVIGCFADFECGNDVELSFTKNGKWMGIAFRIQKEALGGQALYPHVLVKNCAVEFNFGQRAEPYCSVLPGFTFIQHLPLSERIRGTVGPKSKAECEILMMVGLPAAGKTTWAIKHAASNPSKKYNILGTNAIMDKMRVMGLRRQRNYAGRWDVLIQQATQCLNRLIQIAARKKRNYILDQTNVYGSAQRRKMRPFEGFQRKAIVICPTDEDLKDRTIKRTDEEGKDVPDHAVLEMKANFTLPDVGDFLDEVLFIELQREEADKLVRQYNEEGRKAGPPPEKRFDNRGGGGFRGRGGGGGFQRYENRGPPGGNRGGFQNRGGGSGGGGNYRGGFNRSGGGGYSQNRWGNNNRDNNNSNNRGSYNRAPQQQPPPQQPPPPQPPPQQPPPPPSYSPARNPPGASTYNKNSNIPGSSANTSTPTVSSYSPPQPSYSQPPYNQGGYSQGYTAPPPPPPPPPAYNYGSYGGYNPAPYTPPPPPTAQTYPQPSYNQYQQYAQQWNQYYQNQGQWPPYYGNYDYGSYSGNTQGGTSTQ
Molecule B4 came in with a Total of 3 and a Unique of 3. Under setting [2], the “Total (peptides)” value turned out to be 3 and the “Unique (peptides)” value is 3.

B5: NOL11 (protein, UniProt Q9H8H0 1-719, looked up)
Nucleolar protein 11: MAALEEEFTLSSVVLSAGPEGLLGVEQSDKTDQFLVTDSGRTVILYKVSDQKPLGSWSVKQGQIITCPAVCNFQTGEYVVVHDNKVLRIWNNEDVNLDKVFKATLSAEVYRILSVQGTEPLVLFKEGAVRGLEALLADPQQKIETVISDEEVIKWTKFFVVFRHPVLIFITEKHGNYFAYVQMFNSRILTKYTLLLGQDENSVIKSFTASVDRKFISLMSLSSDGCIYETLIPIRPADPEKNQSLVKSLLLKAVVSGNARNGVALTALDQDHVAVLGSPLAASKECLSVWNIKFQTLQTSKELPQGTSGQLWYYGEHLFMLHGKSLTVIPYKCEVSSLAGALGKLKHSQDPGTHVVSHFVNWETPQGCGLGFQNSEQSRRILRRRKIEVSLQPEVPPSKQLLSTIMKDSEKHIEVEVRKFLALKQTPDFHTVIGDTVTGLLERCKAEPSFYPRNCLMQLIQTHVLSYSLCPDLMEIALKKKDVQLLQLCLQQFPDIPESVTCACLKIFLSIGDDSLQETDVNMESVFDYSINSVHDEKMEEQTEILQNGFNPEEDKCNNCDQELNKKPQDETKESTSCPVVQKRAALLNAILHSAYSETFLLPHLKDIPAQHITLFLKYLYFLYLKCSENATMTLPGIHPPTLNQIMDWICLLLDANFTVVVMMPEAKRLLINLYKLVKSQISVYSELNKIEVSFRELQKLNQEKNNRGLYSIEVLELF
As to B5, the Total is 3 and the Unique is listed as 3. Under setting [2], the “Total (peptides)” value came to 5 and the “Unique (peptides)” value worked out at 5.
